From the supplement of paper PMC12823440, “Inhibitors supercharge kinase turnover through native proteolytic circuits” (Nature, 2025)
Structures can show the parent of a compound that is named as a salt. The list shows a part of the results. Hit calls seldom repeat between salt and free forms of one compound.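 In K562 cells expressing nanoluciferase-fused kinases, luminescence was recorded at 4 h intervals between 2 and 18 h, normalized as percent of control with DMSO at 100% and a positive control at 0%. A significant (2 sigma) signal drop marks a time point as decreased. The authors' rule for a hit is not shown and takes in more than the number of time points.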

Amino acid sequences for entries named in this document (tags omitted). A change or cut given only in a name is not applied to a line headed by its entry.
UniProt Q9BUB5: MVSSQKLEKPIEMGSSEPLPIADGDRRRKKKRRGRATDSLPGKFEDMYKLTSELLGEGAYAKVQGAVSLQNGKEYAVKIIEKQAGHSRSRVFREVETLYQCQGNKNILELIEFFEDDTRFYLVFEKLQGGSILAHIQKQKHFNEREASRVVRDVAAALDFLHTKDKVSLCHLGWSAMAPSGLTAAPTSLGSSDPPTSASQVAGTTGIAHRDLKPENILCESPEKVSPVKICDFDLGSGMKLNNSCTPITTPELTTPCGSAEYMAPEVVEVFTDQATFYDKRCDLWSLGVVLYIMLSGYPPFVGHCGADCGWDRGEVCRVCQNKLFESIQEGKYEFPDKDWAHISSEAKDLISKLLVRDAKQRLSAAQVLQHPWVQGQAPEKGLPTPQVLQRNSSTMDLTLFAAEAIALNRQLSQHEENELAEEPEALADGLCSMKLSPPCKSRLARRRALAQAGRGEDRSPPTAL

biological target: MKNK1 (UniProt Q9BUB5); assay: kinase-Nluc reporter destabilization hit call (1 = scored as downregulated) (binary); higher = compound decreases kinase abundance; conditions: 2.5 µM; K562; 2-18 h

kinase-Nluc reporter destabilization hit call, inactive:
CN1CCCN(C(=O)c2cccc(-c3ccc(/C=C4/C(=O)Nc5ccc(Cl)cc54)o3)c2)CC1 [CX-6258 (hydrochloride)] 0
Clc1ccc(C2(c3ccc(-c4cn[nH]c4)cc3)CCNCC2)cc1 [AT7867 (dihydrochloride)] 0
CC(C)Oc1ccc(-c2nn([C@@H](C)c3oc4ccc(F)cc4c(=O)c3-c3cccc(F)c3)c3ncnc(N)c23)cc1F [Umbralisib] 0
C=CC(=O)Nc1cc(Nc2nccc(-c3cn(C)c4ccccc34)n2)c(OC)cc1N(C)CCN(C)C [Osimertinib] 0
COc1cc2c(Oc3ccc4[nH]c(C)cc4c3F)ncnc2cc1OCCCN1CCCC1 [Cediranib (maleate)] 0
CC(C)Oc1ccc(-c2nn([C@@H](C)c3oc4ccc(F)cc4c(=O)c3-c3cccc(F)c3)c3ncnc(N)c23)cc1F [Umbralisib (hydrochloride)] 0
COc1ccc(S(=O)(=O)N(CCO)c2ccccc2CN(C)C/C=C/c2ccc(Cl)cc2)cc1 [KN-93 (hydrochloride)] 0
C=CC(=O)N1CCN(c2ncnc3c(F)c(-c4c(O)cccc4F)c(Cl)cc23)CC1 0
COc1ccc(S(=O)(=O)Nc2ccccc2CN(C)C/C=C/c2ccc(Cl)cc2)cc1 [KN-92 (hydrochloride)] 0
CCN(CC)Cc1ccc(OC)c(-c2cc3c(-c4ccc(C(=O)O)c(C(C)C)c4)ccnc3[nH]2)c1 0
CN(C)C/C=C/C(=O)Nc1cc2c(Nc3ccc(F)c(Cl)c3)ncnc2cc1O[C@H]1CCOC1 [Afatinib (dimaleate)] 0
Oc1cccc(-c2nc(N3CCOCC3)c3oc4ncccc4c3n2)c1 [PI-103 (Hydrochloride)] 0
c1cc(-c2cnn3cc(-c4ccc(OCCN5CCCCC5)cc4)cnc23)ccn1 [Dorsomorphin] 0
COc1ccc(S(=O)(=O)N(CCO)c2ccccc2CN(C)C/C=C/c2ccc(Cl)cc2)cc1 [KN-93 (phosphate)] 0
Nc1ncnc2c1c(-c1ccc(Oc3ccccc3)cc1)nn2[C@@H]1CCCNC1 [IBT6A (hydrochloride)] 0

A portion from the list above:
kinase-Nluc reporter destabilization hit call, inactive:
CC(C)Oc1ccc(-c2nn([C@@H](C)c3oc4ccc(F)cc4c(=O)c3-c3cccc(F)c3)c3ncnc(N)c23)cc1F [Umbralisib (hydrochloride)] 0
COc1ccc(S(=O)(=O)N(CCO)c2ccccc2CN(C)C/C=C/c2ccc(Cl)cc2)cc1 [KN-93 (hydrochloride)] 0
C=CC(=O)N1CCN(c2ncnc3c(F)c(-c4c(O)cccc4F)c(Cl)cc23)CC1 0
